From publication PMC10498670 (2023) come the findings set out here.

HELM strings list residues between dots; [ac] is acetyl, [am] amide, other brackets name non-standard units.

The nature of this series: general procedure: Fmoc solid-phase peptide synthesis; 2'-Cl-TrtCl polystyrene resin (1.1 mmol/g); HCTU/DIPEA. The note with it: whole synthesis, scale of the general procedure 0.2 mmol.

Consider “PEPTIDE1{P.G.L.D.T.[3AbOdzEt]}$PEPTIDE1,PEPTIDE1,1:R1-6:R2$$$V2.0”, for which the isolated yield is on record as 27%.
For “PEPTIDE1{P.G.L.D.T.[3AbOxzEt]}$PEPTIDE1,PEPTIDE1,1:R1-6:R2$$$V2.0”, the isolated yield is reported as 21%.
